# The list shows a part of the results. Small differences around the control level are noise.
# Sequences of proteins named here, by UniProt entry; tags and fusion partners are left off. A change or cut given only in a name is not applied to a line headed by its entry.
# UniProt O95926: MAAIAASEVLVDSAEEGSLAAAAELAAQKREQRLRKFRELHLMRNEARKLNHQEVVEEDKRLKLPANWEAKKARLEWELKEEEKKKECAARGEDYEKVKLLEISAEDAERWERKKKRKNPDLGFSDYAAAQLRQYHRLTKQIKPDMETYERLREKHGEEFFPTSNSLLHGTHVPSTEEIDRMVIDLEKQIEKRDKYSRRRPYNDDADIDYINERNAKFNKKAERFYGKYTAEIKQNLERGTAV
# UniProt O95835: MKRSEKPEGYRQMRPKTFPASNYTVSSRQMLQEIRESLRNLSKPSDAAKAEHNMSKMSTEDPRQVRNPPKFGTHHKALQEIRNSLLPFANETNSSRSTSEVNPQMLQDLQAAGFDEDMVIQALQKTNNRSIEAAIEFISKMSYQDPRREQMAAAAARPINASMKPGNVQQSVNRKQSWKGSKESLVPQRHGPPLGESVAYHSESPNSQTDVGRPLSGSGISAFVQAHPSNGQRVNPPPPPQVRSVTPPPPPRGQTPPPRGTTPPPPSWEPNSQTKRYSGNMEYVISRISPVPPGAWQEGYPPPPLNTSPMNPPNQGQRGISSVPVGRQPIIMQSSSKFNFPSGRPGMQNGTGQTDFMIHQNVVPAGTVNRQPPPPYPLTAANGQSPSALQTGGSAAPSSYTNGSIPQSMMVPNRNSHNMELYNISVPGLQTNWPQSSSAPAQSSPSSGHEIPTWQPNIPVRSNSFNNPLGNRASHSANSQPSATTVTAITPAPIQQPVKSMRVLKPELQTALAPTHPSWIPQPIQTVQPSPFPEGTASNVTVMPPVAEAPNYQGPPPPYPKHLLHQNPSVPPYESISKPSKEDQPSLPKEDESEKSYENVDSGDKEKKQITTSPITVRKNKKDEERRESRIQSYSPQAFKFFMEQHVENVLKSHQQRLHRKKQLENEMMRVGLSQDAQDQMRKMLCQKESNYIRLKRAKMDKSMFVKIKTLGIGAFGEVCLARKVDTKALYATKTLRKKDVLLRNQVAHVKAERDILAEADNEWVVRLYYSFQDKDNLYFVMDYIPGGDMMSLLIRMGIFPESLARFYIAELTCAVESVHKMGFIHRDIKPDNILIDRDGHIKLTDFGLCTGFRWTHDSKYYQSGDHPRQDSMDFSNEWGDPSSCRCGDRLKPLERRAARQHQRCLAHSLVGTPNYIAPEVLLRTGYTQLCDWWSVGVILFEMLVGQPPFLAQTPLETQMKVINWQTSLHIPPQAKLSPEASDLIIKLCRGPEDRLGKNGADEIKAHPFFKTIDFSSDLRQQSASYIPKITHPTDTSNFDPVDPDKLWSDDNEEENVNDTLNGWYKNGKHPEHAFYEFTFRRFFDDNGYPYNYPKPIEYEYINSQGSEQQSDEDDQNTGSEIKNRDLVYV
# UniProt O75920: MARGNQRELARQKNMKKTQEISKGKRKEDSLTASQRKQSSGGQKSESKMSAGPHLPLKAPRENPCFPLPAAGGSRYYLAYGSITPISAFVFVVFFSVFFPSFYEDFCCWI
# UniProt O75832: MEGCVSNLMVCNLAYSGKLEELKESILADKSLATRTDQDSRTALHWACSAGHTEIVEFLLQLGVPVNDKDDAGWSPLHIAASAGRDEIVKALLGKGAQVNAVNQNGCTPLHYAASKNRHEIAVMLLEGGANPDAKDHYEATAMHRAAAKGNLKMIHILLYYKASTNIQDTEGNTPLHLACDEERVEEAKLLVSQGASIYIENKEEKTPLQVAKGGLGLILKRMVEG
# UniProt O94903: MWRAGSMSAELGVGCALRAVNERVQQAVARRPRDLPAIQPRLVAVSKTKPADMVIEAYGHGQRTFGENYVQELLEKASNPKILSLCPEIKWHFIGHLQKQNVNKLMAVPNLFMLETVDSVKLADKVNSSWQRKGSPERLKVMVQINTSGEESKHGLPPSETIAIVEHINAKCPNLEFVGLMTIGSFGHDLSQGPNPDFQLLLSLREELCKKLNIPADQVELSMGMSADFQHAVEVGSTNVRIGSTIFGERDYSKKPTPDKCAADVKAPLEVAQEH
# UniProt P00505: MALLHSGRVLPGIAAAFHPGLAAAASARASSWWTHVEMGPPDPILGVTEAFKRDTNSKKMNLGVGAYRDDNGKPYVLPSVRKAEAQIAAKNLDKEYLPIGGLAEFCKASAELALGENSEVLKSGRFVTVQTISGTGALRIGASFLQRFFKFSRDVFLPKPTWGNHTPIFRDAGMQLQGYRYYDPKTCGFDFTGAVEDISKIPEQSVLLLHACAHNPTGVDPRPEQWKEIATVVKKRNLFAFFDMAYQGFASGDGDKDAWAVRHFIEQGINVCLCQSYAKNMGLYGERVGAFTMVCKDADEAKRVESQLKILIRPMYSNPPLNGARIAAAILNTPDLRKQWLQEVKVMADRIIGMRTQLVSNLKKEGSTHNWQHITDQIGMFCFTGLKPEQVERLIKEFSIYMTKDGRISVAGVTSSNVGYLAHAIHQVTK
# UniProt O95336: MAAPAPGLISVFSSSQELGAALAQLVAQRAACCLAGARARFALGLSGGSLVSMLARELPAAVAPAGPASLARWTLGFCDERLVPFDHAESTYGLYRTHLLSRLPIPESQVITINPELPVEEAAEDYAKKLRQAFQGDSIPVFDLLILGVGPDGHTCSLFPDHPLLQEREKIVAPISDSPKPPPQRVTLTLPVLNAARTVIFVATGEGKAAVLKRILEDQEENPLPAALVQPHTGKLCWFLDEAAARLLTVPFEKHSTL
# UniProt O94889: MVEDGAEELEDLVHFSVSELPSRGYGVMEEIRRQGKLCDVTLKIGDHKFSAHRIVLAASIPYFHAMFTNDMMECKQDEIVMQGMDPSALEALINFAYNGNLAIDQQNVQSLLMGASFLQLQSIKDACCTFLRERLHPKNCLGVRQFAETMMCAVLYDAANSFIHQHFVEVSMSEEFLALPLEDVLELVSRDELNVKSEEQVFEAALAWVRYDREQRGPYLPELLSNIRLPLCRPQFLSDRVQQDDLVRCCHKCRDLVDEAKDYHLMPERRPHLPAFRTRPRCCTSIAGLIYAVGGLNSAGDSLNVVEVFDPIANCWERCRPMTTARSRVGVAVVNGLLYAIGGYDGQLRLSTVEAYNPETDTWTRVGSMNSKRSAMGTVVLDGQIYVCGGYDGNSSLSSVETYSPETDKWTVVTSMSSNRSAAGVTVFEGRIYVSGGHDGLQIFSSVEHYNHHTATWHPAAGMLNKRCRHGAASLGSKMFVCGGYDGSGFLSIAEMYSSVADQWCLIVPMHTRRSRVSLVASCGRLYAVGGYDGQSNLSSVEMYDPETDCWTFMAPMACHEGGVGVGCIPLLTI
# UniProt O75629: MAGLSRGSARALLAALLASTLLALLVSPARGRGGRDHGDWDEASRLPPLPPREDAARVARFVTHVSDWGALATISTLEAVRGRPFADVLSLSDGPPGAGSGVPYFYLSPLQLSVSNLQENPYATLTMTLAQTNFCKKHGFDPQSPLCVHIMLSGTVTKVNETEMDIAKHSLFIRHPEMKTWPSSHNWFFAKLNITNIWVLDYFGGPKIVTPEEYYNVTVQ
# UniProt O95777: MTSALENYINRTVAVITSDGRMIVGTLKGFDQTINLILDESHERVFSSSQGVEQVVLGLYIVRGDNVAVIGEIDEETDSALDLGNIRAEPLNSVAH
# UniProt O94953: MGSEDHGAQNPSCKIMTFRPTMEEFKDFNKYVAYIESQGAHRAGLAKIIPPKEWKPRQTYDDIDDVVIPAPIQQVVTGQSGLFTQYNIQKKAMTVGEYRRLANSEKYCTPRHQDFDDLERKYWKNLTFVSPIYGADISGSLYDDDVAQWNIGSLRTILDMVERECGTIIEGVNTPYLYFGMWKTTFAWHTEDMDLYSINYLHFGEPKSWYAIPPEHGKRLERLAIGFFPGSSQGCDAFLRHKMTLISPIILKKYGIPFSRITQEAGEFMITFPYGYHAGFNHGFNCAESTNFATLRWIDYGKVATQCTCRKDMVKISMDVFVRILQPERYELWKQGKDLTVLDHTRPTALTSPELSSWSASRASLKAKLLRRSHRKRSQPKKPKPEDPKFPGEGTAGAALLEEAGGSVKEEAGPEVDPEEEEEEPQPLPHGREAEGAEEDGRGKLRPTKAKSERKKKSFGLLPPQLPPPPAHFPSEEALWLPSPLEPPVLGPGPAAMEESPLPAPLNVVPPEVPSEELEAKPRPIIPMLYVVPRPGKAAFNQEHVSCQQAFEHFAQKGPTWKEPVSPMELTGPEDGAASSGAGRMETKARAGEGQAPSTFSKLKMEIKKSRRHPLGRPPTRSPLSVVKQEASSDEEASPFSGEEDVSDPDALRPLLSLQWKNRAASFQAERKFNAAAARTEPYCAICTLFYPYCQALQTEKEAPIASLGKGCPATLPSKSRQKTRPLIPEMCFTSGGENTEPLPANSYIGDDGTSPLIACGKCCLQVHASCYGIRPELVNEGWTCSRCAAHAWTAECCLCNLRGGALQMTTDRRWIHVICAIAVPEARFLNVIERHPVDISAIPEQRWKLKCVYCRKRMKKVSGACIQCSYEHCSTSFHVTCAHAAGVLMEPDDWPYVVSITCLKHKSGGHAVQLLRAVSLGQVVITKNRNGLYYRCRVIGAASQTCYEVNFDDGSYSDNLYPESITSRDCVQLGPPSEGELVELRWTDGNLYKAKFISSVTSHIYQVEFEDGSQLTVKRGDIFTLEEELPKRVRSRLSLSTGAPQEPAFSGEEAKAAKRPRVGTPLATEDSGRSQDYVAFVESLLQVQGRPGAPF
# UniProt O75676: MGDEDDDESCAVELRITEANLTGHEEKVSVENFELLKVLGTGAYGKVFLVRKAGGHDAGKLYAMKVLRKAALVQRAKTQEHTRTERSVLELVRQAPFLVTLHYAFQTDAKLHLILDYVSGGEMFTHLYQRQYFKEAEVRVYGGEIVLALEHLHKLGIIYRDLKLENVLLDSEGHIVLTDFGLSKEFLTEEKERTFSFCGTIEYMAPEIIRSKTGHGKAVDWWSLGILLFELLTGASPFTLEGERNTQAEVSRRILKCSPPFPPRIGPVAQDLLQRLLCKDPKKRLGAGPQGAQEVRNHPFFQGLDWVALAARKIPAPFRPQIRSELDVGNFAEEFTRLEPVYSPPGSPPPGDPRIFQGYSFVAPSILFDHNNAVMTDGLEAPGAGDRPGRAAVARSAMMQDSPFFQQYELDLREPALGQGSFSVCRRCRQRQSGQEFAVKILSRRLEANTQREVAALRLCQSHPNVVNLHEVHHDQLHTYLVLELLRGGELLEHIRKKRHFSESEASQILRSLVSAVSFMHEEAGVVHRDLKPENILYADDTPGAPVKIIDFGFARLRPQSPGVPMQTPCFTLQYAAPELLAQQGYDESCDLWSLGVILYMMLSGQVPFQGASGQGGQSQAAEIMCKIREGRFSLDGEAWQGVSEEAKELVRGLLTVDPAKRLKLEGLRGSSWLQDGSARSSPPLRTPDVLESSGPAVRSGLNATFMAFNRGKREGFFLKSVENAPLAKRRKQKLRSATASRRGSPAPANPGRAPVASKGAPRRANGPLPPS
# UniProt O95391: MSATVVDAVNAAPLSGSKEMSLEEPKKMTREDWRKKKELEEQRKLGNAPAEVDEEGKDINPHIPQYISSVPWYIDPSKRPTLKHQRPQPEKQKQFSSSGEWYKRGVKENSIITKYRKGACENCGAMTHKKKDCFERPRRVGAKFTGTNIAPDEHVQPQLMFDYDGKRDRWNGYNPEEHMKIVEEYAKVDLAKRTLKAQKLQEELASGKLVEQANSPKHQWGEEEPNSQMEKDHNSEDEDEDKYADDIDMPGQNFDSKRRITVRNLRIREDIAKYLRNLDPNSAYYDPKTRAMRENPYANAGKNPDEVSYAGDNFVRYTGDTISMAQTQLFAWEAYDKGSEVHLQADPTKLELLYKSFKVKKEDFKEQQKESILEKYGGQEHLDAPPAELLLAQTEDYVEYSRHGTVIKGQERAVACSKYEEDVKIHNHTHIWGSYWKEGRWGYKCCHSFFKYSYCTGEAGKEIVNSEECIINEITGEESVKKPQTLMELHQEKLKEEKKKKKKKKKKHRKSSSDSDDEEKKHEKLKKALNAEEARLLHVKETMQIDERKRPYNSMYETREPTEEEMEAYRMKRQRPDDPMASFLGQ
# UniProt O95817, whole entry: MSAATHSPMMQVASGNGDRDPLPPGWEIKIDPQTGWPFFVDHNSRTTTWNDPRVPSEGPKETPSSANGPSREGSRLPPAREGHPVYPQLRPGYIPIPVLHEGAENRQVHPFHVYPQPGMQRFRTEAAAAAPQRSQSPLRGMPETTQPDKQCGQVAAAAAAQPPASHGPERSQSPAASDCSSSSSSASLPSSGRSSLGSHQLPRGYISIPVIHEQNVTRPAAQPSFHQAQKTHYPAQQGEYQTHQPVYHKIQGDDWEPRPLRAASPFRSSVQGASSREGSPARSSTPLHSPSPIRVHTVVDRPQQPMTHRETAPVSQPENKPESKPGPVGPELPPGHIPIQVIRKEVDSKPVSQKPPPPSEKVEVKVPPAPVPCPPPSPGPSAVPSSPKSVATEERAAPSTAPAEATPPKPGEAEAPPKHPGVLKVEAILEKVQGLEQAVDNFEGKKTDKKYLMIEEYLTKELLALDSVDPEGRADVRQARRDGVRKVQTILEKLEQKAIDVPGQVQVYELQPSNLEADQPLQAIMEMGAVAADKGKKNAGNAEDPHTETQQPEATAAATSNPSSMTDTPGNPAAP
# Compound: Cc1nc(Nc2ncc(C(=O)Nc3c(C)cccc3Cl)s2)cc(N2CCN(CCO)CC2)n1 [dasatinib]
# Experiment: log2 fold change of tryptic peptide abundance, ligand vs vehicle (limited proteolysis) (log2 ratio); higher = more trypsin-susceptible (destabilized)
# Conditions: ligand concentration: 5 uM; sample: K562 cleared lysate
row,Target,log2 fold change
1,"SYF2 (peptide sequence: GEDYEKVK, peptide start residue: 92) (UniProt O95926)",-0.172
2,"LATS1 (peptide sequence: DIKPDNILIDRDGHIK, peptide start residue: 828) (UniProt O95835)",-0.388
3,"PDE8B (peptide sequence: IHSMTIEAPITK, peptide start residue: 384) (UniProt O95263)",-0.103
4,"SNAP29 (peptide sequence: MVDKMDQDLK, peptide start residue: 94) (UniProt O95721)",-0.109
5,"UniProt O75920 (peptide sequence: RKEDSLTASQR, peptide start residue: 26)",0.187
6,"PSMD10 (peptide sequence: NRHEIAVMLLEGGANPDAK, peptide start residue: 117) (UniProt O75832)",0.18
7,"CPSF4 (peptide sequence: SGAAVCEFFLK, peptide start residue: 36) (UniProt O95639)",-0.218
8,"GLRX3 (peptide sequence: GNKQEAKCGFSK, peptide start residue: 254) (UniProt O76003)",-0.714
9,"UniProt O95759 (peptide sequence: ISLWNDHFVEYGR, peptide start residue: 476)",-0.0611
10,"CRYZL1 (peptide sequence: AYTALHYLSHLSPGK, peptide start residue: 132) (UniProt O95825)",0.206
11,"UniProt O94903 (peptide sequence: HGLPPSETIAIVEHINAK, peptide start residue: 154)",0.176
12,"GOT2 (peptide sequence: VGAFTMVCKDADEAK, peptide start residue: 288) (UniProt P00505)",0.82
13,"PGLS (peptide sequence: IVAPISDSPKPPPQR, peptide start residue: 171) (UniProt O95336)",-0.234
14,"TOM1L1 (peptide sequence: YNLPLDIQNR, peptide start residue: 109) (UniProt O75674)",-0.141
15,"TIPRL (peptide sequence: GTLLGESLKLK, peptide start residue: 118) (UniProt O75663)",-1.07
16,"FAM13A (peptide sequence: LRDFEDNFFR, peptide start residue: 969) (UniProt O94988)",0.197
17,"UniProt O75530 (peptide sequence: EVSTAPAGTDMPAAKK, peptide start residue: 5)",-0.214
18,"KLHL18 (peptide sequence: VQQDDLVR, peptide start residue: 241) (UniProt O94889)",0.106
19,"CREG1 (peptide sequence: DHGDWDEASR, peptide start residue: 36) (UniProt O75629)",-0.0163
20,"UniProt O95777 (peptide sequence: AEPLNSVAH, peptide start residue: 88)",0.109
21,"UniProt O94953 (peptide sequence: EAEGAEEDGRGK, peptide start residue: 433)",1.1
22,"RPS6KA4 (peptide sequence: SVENAPLAK, peptide start residue: 721) (UniProt O75676)",-0.404
23,"STAU1 (peptide sequence: MQSTYNYNMR, peptide start residue: 99) (UniProt O95793)",-0.279
24,"SLU7 (peptide sequence: KKELEEQR, peptide start residue: 36) (UniProt O95391)",-0.952
25,"BAG3 (peptide sequence: GYISIPVIHEQNVTR, peptide start residue: 204) (UniProt O95817)",0.169
26,"RAB3D (peptide sequence: TITTAYYR, peptide start residue: 72) (UniProt O95716)",-0.128
27,"CSDE1 (peptide sequence: VNKTHSVNGITEEADPTIYSGK, peptide start residue: 579) (UniProt O75534)",0.38
28,"SEC24B (peptide sequence: IVPQPPLQK, peptide start residue: 1139) (UniProt O95487)",-0.237

# Reformatted with bars between the fields: entries from further up.
row | Target | log2 fold change
26 | RAB3D (peptide sequence: TITTAYYR, peptide start residue: 72) (UniProt O95716) | -0.128
27 | CSDE1 (peptide sequence: VNKTHSVNGITEEADPTIYSGK, peptide start residue: 579) (UniProt O75534) | 0.38

# Source: the supplement of paper PMC12819154, “High-throughput peptide-centric local stability assay extends protein–ligand identification to membrane proteins, tissues and bacteria” (Nature Structural & Molecular Biology, 2025)
